± gives the uncertainty stated by the source. Many entries were measured with a wide error.
Test: self-splicing fitness, log relative to wild type (ln ratio); higher = more splicing; Tetrahymena group I intron in knt gene, E. coli kanamycin selection, DiMSum; sequences stand for … in CUCUCU…GGAGGGAAAAGUUAUCAGGCAUGCACCUGGUAGCUAGUCUUUAAACCAAUAGAUUGCAUCGGUUUAAAAGGCAAGACCGUCAAAUUGCGGGAAAGGGGUCAACAGCCGUUCAGUACCAAGUCUCAGGGGAAACUUUGAGAUGGCCUUGCAAAGGGUAUGGUAAUAAGCUGACGGACAUGGUCCUAACCACGCAGCCAAGUCCUAAGUCAACAGAUCUUCUGUUGAUAUGGAUGCAGUUCACAGACUAAAUGUCGGUCGGGGAAGAUGUAUUCUUCUCAUAAGAUAUAGUCGGACCUCUCCUUAAUGGGAGCUAGCGGAUGAAGUGAUGCAACACUGGAGCCGCUGGGAACUAAUUUGUAUGCGAAAGUAUAUUGAUUAGUUUUGGAGUACUCGUGGUCG
Procedure, shortened: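 A randomised library covering all eight P1ex-region intron nucleotides was built with the intron in the knt kanamycin-resistance gene on pET-22b(+) and held in E. coli BL21(DE3). Cells were grown overnight at 37°C or 30°C on LB agar, with or without 25 μg/mL kanamycin, plus 100 μg/mL carbenicillin, 50 μM IPTG and 0.2% rhamnose, and pooled colonies were amplicon-sequenced on an Illumina HiSeq 2500. DiMSum fitness is the error-weighted combination of wild-type-normalised replicate fold changes, kanamycin versus none.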

Sequence | self-splicing fitness (ln) (30 °C) | self-splicing fitness (ln) (37 °C)
ACUAAGCAAUAUUACGUGUA | -2.6 ± 0.13 | -1.38 ± 0.12
GGGGAGCAAUAUUACGUCAU | -3.95 ± 0.6 | –
GGCGAGCAAUAUUACGUCAC | – | -2.75 ± 0.6
CCGAAGCAAUAUUACGCCUC | – | -2.53 ± 0.54
UGAGAGCAAUAUUACGCAAU | -3.28 ± 0.57 | –
UAGGAGCAAUAUUACGACAC | -3.28 ± 0.75 | -3.33 ± 1
GCUGAGCAAUAUUACGACCG | -2.16 ± 0.66 | 1.34 ± 0.62
UUGCAGCAAUAUUACGCUCC | -2.77 ± 1.1 | -1.97 ± 0.51
GGUUAGCAAUAUUACGAGAU | -3.4 ± 0.62 | –
UGCCAGCAAUAUUACGUCGG | -4.72 ± 0.41 | -2.68 ± 0.25
CAGAAGCAAUAUUACGAUAC | -4.19 ± 0.51 | –
GUUCAGCAAUAUUACGAUUA | -0.665 ± 0.12 | -0.545 ± 0.097
GGGGAGCAAUAUUACGGCUU | -3.73 ± 0.6 | -1.77 ± 0.67
AGCUAGCAAUAUUACGGUCU | -0.425 ± 0.068 | 0.136 ± 0.088
CUUGAGCAAUAUUACGCCCA | -0.925 ± 0.57 | -2.29 ± 0.8
CCCUAGCAAUAUUACGACGG | -2.7 ± 0.14 | -2.87 ± 0.34
GGUCAGCAAUAUUACGUAUC | -0.892 ± 0.078 | -0.138 ± 0.1
CACUAGCAAUAUUACGGCAA | -4.1 ± 0.42 | -2.08 ± 0.18
CUAGAGCAAUAUUACGGUCU | -5.46 ± 0.71 | –
UGAAAGCAAUAUUACGCGUU | -3.19 ± 0.19 | -3.1 ± 0.29
AUACAGCAAUAUUACGGACU | -0.732 ± 0.06 | 0.141 ± 0.09
AUUGAGCAAUAUUACGAACC | -1.27 ± 0.91 | –
AGAGAGCAAUAUUACGAUAA | -2.53 ± 0.77 | –
UCGGAGCAAUAUUACGCGCU | -4.23 ± 1 | –

Single values from the results shown.
GGUCAGCAAUAUUACGUAUC | self-splicing fitness (ln) (30 °C): -0.892 ± 0.078
GCUGAGCAAUAUUACGACCG | self-splicing fitness (ln) (37 °C): 1.34 ± 0.62
AUUGAGCAAUAUUACGAACC | self-splicing fitness (ln) (30 °C): -1.27 ± 0.91
UUGCAGCAAUAUUACGCUCC | self-splicing fitness (ln) (37 °C): -1.97 ± 0.51
UGCCAGCAAUAUUACGUCGG | self-splicing fitness (ln) (30 °C): -4.72 ± 0.41

(continued)

Sequence | self-splicing fitness (ln) (30 °C) | self-splicing fitness (ln) (37 °C)
GGGCAGCAAUAUUACGCACC | -3.23 ± 1 | –
CAUCAGCAAUAUUACGCUGC | -5 ± 0.72 | –
UUGUAGCAAUAUUACGUCGC | – | -2.49 ± 0.76
GACUAGCAAUAUUACGGACC | -1.77 ± 0.38 | -0.714 ± 0.39
UUAGAGCAAUAUUACGCUGC | -4.16 ± 1 | –
CCUUAGCAAUAUUACGCGGU | – | -2.92 ± 0.61
CCCAAGCAAUAUUACGCGCC | -3.47 ± 1 | –
CUGCAGCAAUAUUACGGAUC | -5.88 ± 1 | –
AGCGAGCAAUAUUACGGAGC | -2.42 ± 1.2 | –
GCGAAGCAAUAUUACGACCC | – | 0.823 ± 0.79
UCGGAGCAAUAUUACGAAUA | -2.32 ± 0.32 | -1.27 ± 0.32
UGGGAGCAAUAUUACGGUAA | – | -2.29 ± 1.1
GCUGAGCAAUAUUACGGGGU | -4.24 ± 0.51 | –
AGGGAGCAAUAUUACGAUAU | -2.38 ± 0.57 | –
CGAGAGCAAUAUUACGAGCC | -3.16 ± 0.74 | -2.05 ± 1.1
CAGUAGCAAUAUUACGAGGU | -4.55 ± 0.52 | –
GUCGAGCAAUAUUACGGGCC | -3.87 ± 0.74 | -1.06 ± 0.8
CUACAGCAAUAUUACGUGCU | -4.97 ± 0.58 | –
ACUCAGCAAUAUUACGAUCU | -0.0985 ± 0.064 | 0.407 ± 0.08
UCGCAGCAAUAUUACGCUAC | – | -2.74 ± 0.54
UGAUAGCAAUAUUACGCGUG | -1.18 ± 0.072 | -0.0417 ± 0.078
AGGCAGCAAUAUUACGCCCC | -2.79 ± 1.2 | -1.93 ± 0.81
UGAGAGCAAUAUUACGUCUC | – | -1.39 ± 0.87
GGUUAGCAAUAUUACGCGGC | – | -2.4 ± 0.64

Sequence | self-splicing fitness (ln) (30 °C) | self-splicing fitness (ln) (37 °C)
UCGGAGCAAUAUUACGCAGA | -4.45 ± 0.59 | –
UAUGAGCAAUAUUACGACAC | -2.37 ± 0.64 | –
GUUUAGCAAUAUUACGGGAC | -2.8 ± 0.61 | –
CGACAGCAAUAUUACGAGGA | -3.91 ± 0.2 | -2.53 ± 0.18
AAUCAGCAAUAUUACGCAAC | -1.32 ± 0.11 | -0.666 ± 0.13
UAAUAGCAAUAUUACGAUGA | -2.56 ± 0.19 | -1.48 ± 0.16
UGUGAGCAAUAUUACGCUCG | -2.36 ± 1.2 | -1.51 ± 0.84
CACUAGCAAUAUUACGCGUG | -3.99 ± 0.21 | -3.12 ± 0.25
CCUAAGCAAUAUUACGUGCC | – | -2.12 ± 0.61
UGCCAGCAAUAUUACGAGGU | -3.06 ± 0.13 | -3.99 ± 0.3
GUAGAGCAAUAUUACGAAAG | – | -1.51 ± 0.59
GUGAAGCAAUAUUACGUACC | – | 0.326 ± 0.69
ACGCAGCAAUAUUACGGAGC | -4.9 ± 0.59 | –
CGGAAGCAAUAUUACGCCCG | -2.86 ± 0.36 | -2.24 ± 0.56
UCGUAGCAAUAUUACGCGGC | -3.47 ± 1 | –
AGUUAGCAAUAUUACGUUUC | – | -4.82 ± 1
UAGGAGCAAUAUUACGCUGU | -3.77 ± 0.73 | -2.19 ± 0.79
CCCAAGCAAUAUUACGCACC | -3.5 ± 0.73 | –
AGAGAGCAAUAUUACGGAAA | -2.14 ± 0.53 | -2.24 ± 0.79
AUGAAGCAAUAUUACGGAUG | -0.705 ± 0.063 | 0.152 ± 0.076
UAUGAGCAAUAUUACGCAAA | – | -1.91 ± 0.52
AGUUAGCAAUAUUACGCGGC | -2.64 ± 0.64 | -2.72 ± 1.1
UCGCAGCAAUAUUACGCAAC | -4.48 ± 0.52 | –
UUCUAGCAAUAUUACGCCCC | -1.27 ± 1.4 | -1.36 ± 0.56

Sequence | self-splicing fitness (ln) (30 °C) | self-splicing fitness (ln) (37 °C)
UUAGAGCAAUAUUACGUUAC | -3.72 ± 0.59 | –
GCGUAGCAAUAUUACGAGCC | – | -2.44 ± 0.77
GGUGAGCAAUAUUACGCCUU | -2.16 ± 0.57 | –
UAAUAGCAAUAUUACGGUGC | -3.71 ± 0.6 | –
CACGAGCAAUAUUACGUAAA | -5.2 ± 0.51 | –
CACAAGCAAUAUUACGAGCA | -2.96 ± 0.2 | -2.28 ± 0.17
GGCUAGCAAUAUUACGCUCC | – | -1.75 ± 0.81
AUUGAGCAAUAUUACGUACC | -2.71 ± 0.79 | –
UAUAAGCAAUAUUACGAAUC | -4.4 ± 1 | –
CGGGAGCAAUAUUACGGAUC | -3.09 ± 0.43 | -2.07 ± 0.42
CGUUAGCAAUAUUACGGGAU | -4.45 ± 0.51 | –
CGAUAGCAAUAUUACGAAAC | – | -2.54 ± 1.1
UUCUAGCAAUAUUACGUCAG | -3.16 ± 0.37 | -1.75 ± 0.26
AUUUAGCAAUAUUACGAGAG | -3.58 ± 0.74 | –
CUGUAGCAAUAUUACGCCAA | -1.54 ± 0.71 | –
UGGGAGCAAUAUUACGCAGU | -4.22 ± 0.59 | -3.15 ± 0.61
GUGGAGCAAUAUUACGUGUU | – | -2.24 ± 0.56
UAAGAGCAAUAUUACGCCGU | -3.42 ± 0.6 | –
CAAGAGCAAUAUUACGGAGC | -4.31 ± 1 | –
AUCAAGCAAUAUUACGCCGC | – | -2.88 ± 0.75
GAUCAGCAAUAUUACGGUUC | -2.83 ± 0.23 | -0.31 ± 0.14
CCGGAGCAAUAUUACGGCUA | -2.79 ± 1.2 | –
UUUGAGCAAUAUUACGAACC | – | -2.9 ± 1.1
GUGGAGCAAUAUUACGAUGG | -4.99 ± 0.71 | –

Sequence | self-splicing fitness (ln) (30 °C) | self-splicing fitness (ln) (37 °C)
UACUAGCAAUAUUACGACCU | -2.01 ± 0.13 | -0.83 ± 0.15
GACGAGCAAUAUUACGAAUA | -3.54 ± 0.73 | -2.7 ± 0.75
GUAUAGCAAUAUUACGCGCC | -2.2 ± 0.67 | -1.67 ± 0.67
AAAUAGCAAUAUUACGUGAC | -1.53 ± 0.2 | -3.22 ± 0.61
GGCGAGCAAUAUUACGGGAU | -4.17 ± 0.74 | –
AUCGAGCAAUAUUACGCUGC | – | -2.66 ± 0.75
AUUAAGCAAUAUUACGGCCG | -0.768 ± 0.12 | 0.0891 ± 0.15
CCAGAGCAAUAUUACGUGCC | -3.42 ± 0.38 | -2.76 ± 0.32
UCGAAGCAAUAUUACGCUAG | -2.16 ± 0.14 | -0.234 ± 0.14
GUUGAGCAAUAUUACGCCAA | – | -3.08 ± 1
GGAGAGCAAUAUUACGCAGG | -5.41 ± 0.71 | -4.29 ± 0.59
UGGUAGCAAUAUUACGGGGC | -4.42 ± 1 | –
CUCGAGCAAUAUUACGGAUC | -3.34 ± 0.6 | –
ACCCAGCAAUAUUACGACUU | 0.148 ± 0.042 | 0.908 ± 0.062
GACAAGCAAUAUUACGCCAG | – | -2.87 ± 0.53
CUCGAGCAAUAUUACGAUCC | -2.95 ± 1.1 | -1.84 ± 1.1
GUCAAGCAAUAUUACGUCAC | -3.72 ± 1 | -3.69 ± 0.59
UCCGAGCAAUAUUACGGCUU | – | -3.34 ± 1
ACGGAGCAAUAUUACGUGCA | -3.89 ± 0.52 | –
ACAUAGCAAUAUUACGGAAG | -3.57 ± 0.15 | -3.04 ± 0.22
GUGGAGCAAUAUUACGACAG | -4.49 ± 1 | -1.13 ± 1.2

Reference: the supplement of paper PMC7877785
